This is an account of results in publication PMC5550871.

Sequences of proteins named here, by UniProt entry; tags and fusion partners are left off.
UniProt P08151: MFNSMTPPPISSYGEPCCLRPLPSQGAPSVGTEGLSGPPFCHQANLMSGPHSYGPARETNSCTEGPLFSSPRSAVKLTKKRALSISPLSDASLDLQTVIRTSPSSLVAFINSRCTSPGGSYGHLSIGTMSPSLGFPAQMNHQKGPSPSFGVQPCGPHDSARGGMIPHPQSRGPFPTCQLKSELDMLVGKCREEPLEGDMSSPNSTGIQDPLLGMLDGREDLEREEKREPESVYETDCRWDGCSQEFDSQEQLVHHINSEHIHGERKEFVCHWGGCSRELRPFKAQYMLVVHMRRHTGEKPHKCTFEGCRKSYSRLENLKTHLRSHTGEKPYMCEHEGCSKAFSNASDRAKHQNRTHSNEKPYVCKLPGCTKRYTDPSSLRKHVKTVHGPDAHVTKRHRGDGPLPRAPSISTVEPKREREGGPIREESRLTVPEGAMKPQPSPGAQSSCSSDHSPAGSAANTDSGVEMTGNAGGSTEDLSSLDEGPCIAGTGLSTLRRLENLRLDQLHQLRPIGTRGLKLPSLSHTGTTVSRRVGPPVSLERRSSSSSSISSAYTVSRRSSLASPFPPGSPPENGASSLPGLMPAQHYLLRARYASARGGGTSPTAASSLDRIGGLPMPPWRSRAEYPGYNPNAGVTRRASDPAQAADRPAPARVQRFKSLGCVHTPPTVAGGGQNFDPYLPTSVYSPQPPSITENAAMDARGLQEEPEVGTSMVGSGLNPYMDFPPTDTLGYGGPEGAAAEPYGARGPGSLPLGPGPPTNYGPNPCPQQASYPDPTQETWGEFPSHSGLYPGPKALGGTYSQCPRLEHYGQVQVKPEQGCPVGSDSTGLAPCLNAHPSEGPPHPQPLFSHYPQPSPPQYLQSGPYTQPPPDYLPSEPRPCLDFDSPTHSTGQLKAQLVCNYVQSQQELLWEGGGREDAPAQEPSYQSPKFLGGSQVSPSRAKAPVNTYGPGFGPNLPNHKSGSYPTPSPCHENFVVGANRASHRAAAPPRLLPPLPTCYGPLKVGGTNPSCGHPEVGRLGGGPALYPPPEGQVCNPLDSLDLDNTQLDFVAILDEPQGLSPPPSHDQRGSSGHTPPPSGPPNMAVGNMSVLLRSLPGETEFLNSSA
UniProt P47806: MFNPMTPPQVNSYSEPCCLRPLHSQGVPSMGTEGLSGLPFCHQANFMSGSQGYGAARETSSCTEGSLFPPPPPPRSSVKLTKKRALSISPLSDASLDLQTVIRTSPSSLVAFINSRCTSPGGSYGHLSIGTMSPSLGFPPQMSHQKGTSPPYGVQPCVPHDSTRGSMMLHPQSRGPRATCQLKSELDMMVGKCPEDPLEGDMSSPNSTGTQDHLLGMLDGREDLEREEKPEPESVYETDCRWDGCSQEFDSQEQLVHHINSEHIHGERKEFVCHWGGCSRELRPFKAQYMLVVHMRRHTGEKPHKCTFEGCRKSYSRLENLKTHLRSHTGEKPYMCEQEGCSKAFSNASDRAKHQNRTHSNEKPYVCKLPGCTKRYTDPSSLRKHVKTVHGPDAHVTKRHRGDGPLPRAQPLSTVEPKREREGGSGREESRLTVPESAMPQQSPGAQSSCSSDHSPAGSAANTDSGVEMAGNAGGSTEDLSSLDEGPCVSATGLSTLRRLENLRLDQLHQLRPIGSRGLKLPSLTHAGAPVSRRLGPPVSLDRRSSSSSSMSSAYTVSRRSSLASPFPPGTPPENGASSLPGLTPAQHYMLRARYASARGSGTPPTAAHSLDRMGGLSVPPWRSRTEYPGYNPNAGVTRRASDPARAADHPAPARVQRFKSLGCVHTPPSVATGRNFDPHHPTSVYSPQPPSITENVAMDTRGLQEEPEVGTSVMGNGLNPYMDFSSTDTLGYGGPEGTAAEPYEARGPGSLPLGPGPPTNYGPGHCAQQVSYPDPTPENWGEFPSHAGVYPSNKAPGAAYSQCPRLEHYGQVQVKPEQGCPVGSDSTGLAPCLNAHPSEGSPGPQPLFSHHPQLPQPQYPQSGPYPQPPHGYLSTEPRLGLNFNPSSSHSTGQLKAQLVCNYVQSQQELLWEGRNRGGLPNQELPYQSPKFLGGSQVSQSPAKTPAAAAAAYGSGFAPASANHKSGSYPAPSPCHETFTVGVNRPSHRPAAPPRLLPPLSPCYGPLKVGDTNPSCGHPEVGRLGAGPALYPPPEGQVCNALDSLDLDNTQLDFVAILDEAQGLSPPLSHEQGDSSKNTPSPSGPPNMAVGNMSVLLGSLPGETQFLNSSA
UniProt P10070: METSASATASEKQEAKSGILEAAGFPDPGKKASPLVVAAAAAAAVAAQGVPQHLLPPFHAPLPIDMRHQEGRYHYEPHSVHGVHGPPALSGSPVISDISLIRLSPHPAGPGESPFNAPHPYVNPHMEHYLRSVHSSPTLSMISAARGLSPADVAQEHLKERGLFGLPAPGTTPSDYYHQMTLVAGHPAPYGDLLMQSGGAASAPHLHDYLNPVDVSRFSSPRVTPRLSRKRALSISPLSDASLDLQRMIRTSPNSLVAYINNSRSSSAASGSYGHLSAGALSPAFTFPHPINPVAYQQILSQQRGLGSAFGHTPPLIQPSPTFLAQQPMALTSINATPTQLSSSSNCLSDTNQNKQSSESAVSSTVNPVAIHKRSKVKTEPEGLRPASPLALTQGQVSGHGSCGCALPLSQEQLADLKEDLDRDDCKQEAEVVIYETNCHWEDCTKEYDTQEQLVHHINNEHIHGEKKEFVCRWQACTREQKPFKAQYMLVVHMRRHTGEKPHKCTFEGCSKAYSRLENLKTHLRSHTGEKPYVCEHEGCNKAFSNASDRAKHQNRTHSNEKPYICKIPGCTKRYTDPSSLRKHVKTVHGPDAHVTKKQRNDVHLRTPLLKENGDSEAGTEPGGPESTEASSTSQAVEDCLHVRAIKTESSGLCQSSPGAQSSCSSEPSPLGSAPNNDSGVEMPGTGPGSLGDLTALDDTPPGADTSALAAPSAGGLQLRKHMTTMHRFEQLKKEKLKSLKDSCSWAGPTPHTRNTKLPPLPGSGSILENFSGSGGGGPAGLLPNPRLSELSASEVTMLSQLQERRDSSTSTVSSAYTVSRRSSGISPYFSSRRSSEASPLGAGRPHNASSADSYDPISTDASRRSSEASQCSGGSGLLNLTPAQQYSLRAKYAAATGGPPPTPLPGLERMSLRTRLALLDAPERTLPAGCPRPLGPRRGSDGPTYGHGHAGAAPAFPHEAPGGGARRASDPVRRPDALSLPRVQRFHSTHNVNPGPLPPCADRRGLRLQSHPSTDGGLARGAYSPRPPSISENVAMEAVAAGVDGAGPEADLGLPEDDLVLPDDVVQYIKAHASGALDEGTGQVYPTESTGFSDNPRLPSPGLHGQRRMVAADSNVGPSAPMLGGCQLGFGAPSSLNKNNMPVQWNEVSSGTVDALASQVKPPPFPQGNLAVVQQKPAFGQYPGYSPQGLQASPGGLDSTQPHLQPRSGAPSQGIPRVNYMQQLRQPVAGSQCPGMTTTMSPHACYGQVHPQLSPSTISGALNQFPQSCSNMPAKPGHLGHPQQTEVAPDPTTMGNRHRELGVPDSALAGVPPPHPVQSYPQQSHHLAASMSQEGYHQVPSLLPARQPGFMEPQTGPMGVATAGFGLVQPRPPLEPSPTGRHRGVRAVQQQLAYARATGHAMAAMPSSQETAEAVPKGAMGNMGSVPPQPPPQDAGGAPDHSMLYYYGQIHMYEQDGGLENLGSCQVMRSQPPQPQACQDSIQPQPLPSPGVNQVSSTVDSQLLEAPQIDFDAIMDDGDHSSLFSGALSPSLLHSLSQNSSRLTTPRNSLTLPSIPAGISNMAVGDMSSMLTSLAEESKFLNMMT

For experiment [1], the target named is Flag-tagged Maml1 full-length (1–1016) (UniProt Q92585). The experiment in a line: co-IP; transfected HEK293T cells; lysate incubated with Flag M2 agarose beads for 2 h at 4 °C; control with the antibody saturated with Flag peptide; blots with anti-HA or anti-Myc.
In experiment [2] the target is Flag-tagged Maml1 (1–302) (UniProt Q92585). The description is as above.
The target in experiment [3] is T1, Flag-tagged Maml1 (303–1016) (UniProt Q92585).
T1 sequence: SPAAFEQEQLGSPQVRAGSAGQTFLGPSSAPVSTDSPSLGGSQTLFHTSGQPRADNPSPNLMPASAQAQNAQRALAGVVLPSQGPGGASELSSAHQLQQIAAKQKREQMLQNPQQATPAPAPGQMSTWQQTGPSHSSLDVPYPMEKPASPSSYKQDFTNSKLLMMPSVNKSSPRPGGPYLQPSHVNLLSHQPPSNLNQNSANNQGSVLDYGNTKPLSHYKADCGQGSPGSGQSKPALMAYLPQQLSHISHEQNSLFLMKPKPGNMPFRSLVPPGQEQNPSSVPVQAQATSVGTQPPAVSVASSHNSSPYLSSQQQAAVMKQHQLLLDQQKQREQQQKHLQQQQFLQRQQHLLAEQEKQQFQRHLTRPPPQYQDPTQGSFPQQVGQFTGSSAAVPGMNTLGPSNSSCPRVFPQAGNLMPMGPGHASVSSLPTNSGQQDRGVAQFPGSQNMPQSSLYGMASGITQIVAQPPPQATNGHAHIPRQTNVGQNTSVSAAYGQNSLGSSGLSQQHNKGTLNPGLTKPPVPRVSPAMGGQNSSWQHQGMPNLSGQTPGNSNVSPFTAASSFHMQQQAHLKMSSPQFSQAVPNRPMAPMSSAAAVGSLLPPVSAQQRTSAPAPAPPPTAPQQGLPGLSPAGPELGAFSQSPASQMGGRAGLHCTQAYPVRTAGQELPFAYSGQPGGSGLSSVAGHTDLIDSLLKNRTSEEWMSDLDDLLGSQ
Described as above.

For experiment [4], the target named is HA-tagged Gli1 (pCS2-HA3-Gli1) (UniProt P08151). The experiment in a line: co-IP; reciprocal: transfected HEK293T lysate, pre-cleared with Protein G-Agarose, anti-Gli1 (C-1) or normal mouse IgG overnight at 4 °C; Maml1 detected with anti-Flag.
Experiment [5] addresses endogenous Maml1 (mouse (endogenous in Ptch1−/− MEFs and NIH3T3)) (UniProt Q6T264). The experiment is described as follows: co-IP; endogenous proteins; Ptch1−/− MEF lysate, anti-Maml1 (D3E9) or normal rabbit IgG overnight at 4 °C, Protein A-Agarose; blot for Gli1.
For experiment [6] the target is unchanged. The experiment in a line: proximity ligation; in situ PLA (Duolink) in NIH3T3 cells with anti-Gli1 (H300) and anti-Maml1 (N-20); signal only when the two antigens are less than 40 nm apart; controls with only one primary antibody.

Results are given in words; binding and its absence hold for the method and conditions named. In cells and extracts the contact can be indirect. Some results given as binding are weak or reduced against the parent protein; the word gives no strength. For some of these results: Tags and fused reporters may be left off the sequences shown.

“HA-tagged Gli1 (pCS2-HA3-Gli1) (from UniProt P08151 1-1106)”: the binding entry in experiment [1], in experiment [2] and in experiment [3] was “binds” each time. On to “Flag-tagged Maml1 full-length (1–1016) (from UniProt Q92585 1-1016)”, for which the binding entry in experiment [4] is given as “binds”.

As to “endogenous Gli1 (from UniProt P47806 1-1111)”, the binding result in experiment [5] and in experiment [6] was “binds” each time. On to “Myc-tagged Gli2 full length (pCS2-MT Gli2FL-Myc) (from UniProt P10070 1-1586)”, for which the binding result in experiment [1] was “binds”.
